In patent publication US4172130A (Richter Gedeon Vegyeszeti Gyar RT, priority 1976, dated 1979):
Values joined by “and” are separate entries in the source; they are usually repeats but may differ in a detail not shown here. Equal entries are not always repeated. HELM strings list residues between dots; [ac] is acetyl, [am] amide, other brackets name non-standard units.

Assay: general procedure: solution-phase peptide synthesis; active esters (OSu, OPCP, OPFP) with triethylamine in DMF
Details: coupling step

Substance | step yield
BOC-Trp(For)-L-Ade-Asp-Phe-NH2 | 87.5%
2-(2-(tert.-Butoxycarbonyl-aminooxy)-acetyl-L-tryptophyl-L-methionyl-L-aspartyl-L-phenylalanyl-aminooxy)-acetic acid | 31%
N-tert.-Butoxycarbonyl-L-tryptophyl-L-norleucyl-L-aspartyl-L-phenylalanine- amide | 89.7%
N-(tert.-Butoxycarbonyl)-L-tryptophyl-L-leucyl-L-aspartyl-L-phenylalanine-amine | 72.1%
2-(3-(tert.-Butoxycarbonyl-aminooxy)-propionyl-L-tryptophyl-L-methionyl-L-aspartyl-L-phenylalanyl-aminooxy)-acetic acid | 34%
PEPTIDE1{[Boc].[D-OAla].W.M.D.F.[OGly]}$$$$V2.0 | 25.6%
N-tert.-Butoxycarbonyl-L-tryptophyl-L-norvalyl-L-aspartyl-L-phenylalanine-amide | 73.9%
N-tert.-Butoxycarbonyl-L-tryptophyl-2-D-amino-decano-yl-L-aspartyl-L-phenylalanine-amide | 83.8%
2-D-(tert.-Butoxycarbonyl-aminooxy)-propionyl-L-tryptophyl-L-norvalyl-L-aspartyl-L-phenylalanine-amide | 43.4%

Same assay, conditions: coupling step; run 1

Substance | step yield
2-(N-(tert.-Butoxycarbonyl)-L-methionyl-L-aspartyl-L-phenylalanyl-aminooxy)acetic acid | 69% and 35.7%
N-(tert.-Butoxycarbonyl)-L-tryptophyl-L-methionyl-L-aspartyl-L-phenylalanine-amide | 95% and 69%
(tert.-Butoxycarbonyl-aminooxy)-acetyl-L-tryptophyl-L-methionyl-L-aspartyl- L-phenylalanine-amide | 91% and 64.8%
N-(tert.-Butoxycarbonyl)-L-tryptophyl-L-leucyl-L-aspartyl-β-(tert.-butyl ester)-L-phenylalanine-amide | 84.5%

Same assay, conditions: late stage modification step

Substance | step yield
L-Tryptophyl-L-methionyl-L-aspartyl-L- phenylalanine-amide monohydrate | 82.4%
2-(L-Tryptophyl-L-methionyl-L-aspartyl-L-phenylalanyl-aminooxy)-acetic acid | 71%
(Aminooxy)-acetyl-L-tryptophyl-L-methionyl-L-aspartyl-L-phenylalanine-amide | 69%
L-Tryptophyl-L-leucyl-L-aspartyl-L-phenylalanine-amide | 83.1%
L-Tryptophyl-L-norvalyl-L-aspartyl-L-phenylalanine-amide hydrochloride | 98.0%
L-Tryptophyl-2-D-amino-decanoyl-L-aspartyl-L-phenylalanine-amide hydrochloride | 91.4%
L-Tryptophyl-2-L-amino-decanoyl-L-aspartyl-L-phenyl-alanine-amide hydrochloride | 99%
L-Tryptophyl-L-norleucyl-L-aspartyl-L-phenylalanine-amide hydrochloride | 69.7%
